Assay results: patent US20210268056A1, “TAXODIONE FOR ITS USE FOR PROTECTING MUSCLE AND MEAT FROM OXIDATION” (CENTRE NATIONAL DE LA RECHERCHE SCIENTIFIQUE, priority 2018, published 2021)
Some compounds share one wording; it may come from a single statement.

Assays:
[1] = tested on: minced gastrocnemius muscles from C57BL/6 male mice; experiment: Lipid oxidation (TBARS) in minced mouse meat during refrigerated storage; conditions: BHT 0.010-0.0025%, FIG. 5A
[2] = tested on: minced gastrocnemius muscles from C57BL/6 male mice; experiment: Protein oxidation (total thiols) in minced mouse meat during refrigerated storage; conditions: FIG. 5B
[3] = day 0, CA and TX 0.015-0.00375% w/w minced muscle
[4] = day 7 of storage at 4° C., CA and TX 0.015-0.00375% w/w

Structure (SMILES): Cc1cc(C(C)(C)C)c(O)c(C(C)(C)C)c1 [BHT, butylated hydroxytoluene]
- TBARS values versus control [1, 3]: significantly lower
- TBARS values versus control [1, 4]: remained lower than in control
- thiol level in meat, control versus treated ([2]; after 7 days of storage, 0.01% BHT): but not

Structure (SMILES): CC(C)c1cc2c(c(O)c1O)[C@@]1(C(=O)O)CCCC(C)(C)[C@@H]1CC2 [CA, carnosic acid]
- TBARS values versus control [1, 3]: significantly lower
- TBARS values versus control [1, 4]: remained lower than in control

Structure (SMILES): CC(C)C1=CC2=CC(=O)[C@H]3C(C)(C)CCC[C@]3(C)C2=C(O)C1=O [taxodione, (4bS,8aS)-4b,5,6,7,8,8a-hexahydro-4-hydroxy-2-isopropyl-4b,8,8-trimethylphenanthrene-3,9-dione]
- TBARS values versus control [1, 3]: significantly lower
- TBARS values versus control [1, 4]: remained lower than in control
- total thiol level versus control ([2]; day 0, highest TX concentration (0.015%)): significantly lower
